PubChem BioAssay AID1259254, NCATS | 2017

Test: 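Gene knock-downs that lead to re-replication, shown by excess G2 DNA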 (primary screen)
Cells: human HCT116 colorectal cancer cells
Reagents: single siRNA against human genes
Duration: 3 days
Measurement: 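Nuclei stained with Hoechst and imaged; cell-cycle phase assigned by DNA content; G2 share scaled per plate, non-targeting siRNA 0%, GMNN siRNA 100%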
Scale: G2 robust z-score and G2 cells, % of GMNN control: higher = more G2 cells, more excess DNA replication; raw share of cells in G2: higher = larger share of cells with G2 DNA content
Active means: 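An siRNA counts as active if its G2 robust z-score lies at least 5 MADs above the screen median; here such calls match roughly 38% of GMNN control or more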
Here is an unselected part of about 59,000 deposited reagents. About 1,550 of all reagents (2.6%) were called active. 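G2 share is only a proxy for re-replication; each gene was hit by three separate siRNAs, and active genes were retested.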 Raw values are not corrected between plates. Entries without a mark were called inactive. The numbers tell different reagents against one gene apart. Not given: the amount of reagent.

The first 2 entries, ahead of the listing:
gene symbol | reagent no. | G2 robust z-score | G2 cells, % of GMNN control | raw share of cells in G2 (%)
STX12 (syntaxin 12) | 1 | -0.281 | 0.989 | 3.14
STX12 (syntaxin 12) | 2 | -0.823 | -2.83 | 4.63

Main list, from the start:
gene symbol | reagent no. | G2 robust z-score | G2 cells, % of GMNN control | raw share of cells in G2 (%)
STX12 (syntaxin 12) | 1 | -0.281 | 0.989 | 3.14
STX12 (syntaxin 12) | 2 | -0.823 | -2.83 | 4.63
STX12 (syntaxin 12) | 3 | 0.271 | 4.88 | 5.16
ALG2 (ALG2 alpha-1,3/1,6-mannosyltransferase) | 1 | 5.8 (active) | 43.8 | 23.7
ALG2 (ALG2 alpha-1,3/1,6-mannosyltransferase) | 2 | -0.68 | -1.82 | 4.83
ALG2 (ALG2 alpha-1,3/1,6-mannosyltransferase) | 3 | 1.26 | 11.8 | 8.95
TGFB2-AS1 (TGFB2 antisense RNA 1) | 1 | -0.327 | 0.667 | 3.85
TGFB2-AS1 (TGFB2 antisense RNA 1) | 2 | -0.357 | 0.456 | 3.71
TGFB2-AS1 (TGFB2 antisense RNA 1) | 3 | 0.681 | 7.76 | 5.61
AARS1 (alanyl-tRNA synthetase 1) | 1 | -0.727 | -2.15 | 4.31
AARS1 (alanyl-tRNA synthetase 1) | 2 | 4.6 | 35.4 | 17.2
AARS1 (alanyl-tRNA synthetase 1) | 3 | 1.07 | 10.5 | 8.3
TPRX1 (tetrapeptide repeat homeobox 1) | 1 | 0.526 | 6.67 | 5.29
TPRX1 (tetrapeptide repeat homeobox 1) | 2 | -0.85 | -3.02 | 2.54
TPRX1 (tetrapeptide repeat homeobox 1) | 3 | 1.25 | 11.7 | 7.59
BPNT2 (3'(2'), 5'-bisphosphate nucleotidase 2) | 1 | 0.482 | 6.36 | 5.29
BPNT2 (3'(2'), 5'-bisphosphate nucleotidase 2) | 2 | 3.25 | 25.8 | 12.9
BPNT2 (3'(2'), 5'-bisphosphate nucleotidase 2) | 3 | 2.13 | 18 | 11.8
RAB1B (RAB1B, member RAS oncogene family) | 1 | -0.977 | -3.91 | 3.8
RAB1B (RAB1B, member RAS oncogene family) | 2 | -1.06 | -4.5 | 3.12
RAB1B (RAB1B, member RAS oncogene family) | 3 | 3.96 | 30.8 | 15.3
U2SURP (U2 snRNP associated SURP domain containing) | 1 | 3.15 | 25.1 | 16.5
U2SURP (U2 snRNP associated SURP domain containing) | 2 | 0.0094 | 3.03 | 5.17
U2SURP (U2 snRNP associated SURP domain containing) | 3 | 0.298 | 5.06 | 5.6
CEP192 (centrosomal protein 192) | 1 | 2.9 | 23.4 | 10.6
CEP192 (centrosomal protein 192) | 2 | 1.58 | 14.1 | 9.94
CEP192 (centrosomal protein 192) | 3 | 3.22 | 25.7 | 14.8
CYP3A5 (cytochrome P450 family 3 subfamily A member 5) | 1 | -0.544 | -0.862 | 3.8
CYP3A5 (cytochrome P450 family 3 subfamily A member 5) | 2 | -1.03 | -4.26 | 3.44
CYP3A5 (cytochrome P450 family 3 subfamily A member 5) | 3 | -1.11 | -4.83 | 3.24
